Test results published in paper PMC8647151, “PLK1‐dependent phosphorylation restrains EBNA2 activity and lymphomagenesis in EBV‐infected mice” (EMBO Reports, 2021).

The chains behind the UniProt entries cited, without tags or fusion partners.
UniProt P12978: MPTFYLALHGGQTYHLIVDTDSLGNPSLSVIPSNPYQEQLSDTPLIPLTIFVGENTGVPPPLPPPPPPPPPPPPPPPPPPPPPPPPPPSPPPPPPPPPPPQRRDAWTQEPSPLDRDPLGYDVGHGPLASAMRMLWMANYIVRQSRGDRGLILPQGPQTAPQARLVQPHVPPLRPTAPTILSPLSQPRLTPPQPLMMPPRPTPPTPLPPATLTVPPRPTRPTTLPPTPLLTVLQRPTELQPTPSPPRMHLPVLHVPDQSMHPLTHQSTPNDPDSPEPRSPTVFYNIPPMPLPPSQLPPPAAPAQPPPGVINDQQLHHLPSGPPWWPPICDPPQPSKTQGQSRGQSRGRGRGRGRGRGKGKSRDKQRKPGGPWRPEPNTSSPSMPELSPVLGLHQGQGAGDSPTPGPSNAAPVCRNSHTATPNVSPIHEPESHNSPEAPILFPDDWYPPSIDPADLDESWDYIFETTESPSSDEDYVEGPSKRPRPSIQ
UniProt Q06330: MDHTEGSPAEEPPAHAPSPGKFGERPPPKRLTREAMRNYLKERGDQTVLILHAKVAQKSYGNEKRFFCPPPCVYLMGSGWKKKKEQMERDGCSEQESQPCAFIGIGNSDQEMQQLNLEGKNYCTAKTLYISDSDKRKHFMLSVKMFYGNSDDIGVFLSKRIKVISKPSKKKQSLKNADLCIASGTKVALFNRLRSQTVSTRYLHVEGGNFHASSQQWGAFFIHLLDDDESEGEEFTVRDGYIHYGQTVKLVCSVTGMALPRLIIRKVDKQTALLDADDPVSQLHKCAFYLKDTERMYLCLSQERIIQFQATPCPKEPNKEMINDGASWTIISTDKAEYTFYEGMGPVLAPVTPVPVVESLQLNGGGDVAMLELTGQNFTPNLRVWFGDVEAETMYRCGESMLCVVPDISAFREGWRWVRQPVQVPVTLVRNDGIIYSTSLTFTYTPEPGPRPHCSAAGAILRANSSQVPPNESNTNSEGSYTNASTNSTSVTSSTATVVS

Target: HA-tagged EBNA2 (wild type), transfected (Epstein-Barr virus (B95-8)) (UniProt P12978)
Experiment: affinity purification with mass spectrometry; DG75 cells transfected with C-terminal HA-tagged EBNA2 or HA vector; NP-40 lysis buffer (1% NP-40, 10 mM Tris-HCl pH 7.4, 3% glycerol, 150 mM NaCl, 1 mM EDTA); IP with HA-specific antibody on protein G beads; label-free LC-MS/MS

## CBF1/RBPJ, endogenous (from UniProt Q06330 1-500)
  binding: binds

These are yes or no findings as the source states them, for the method shown. In cells and extracts the contact can be indirect. A yes stands for co-enrichment or nearness to the bait. Other partners may have been found.
